According to the supplement of paper PMC12067093, “Discovery and optimisation of a covalent ligand for TRIM25 and its application to targeted protein ubiquitination” (Chemical Science, 2025):
This is one part of the list.

The chains behind the UniProt entries cited, without tags or fusion partners. Where a name states a change or a piece, a line headed by the entry shows the natural chain unless it says otherwise.
UniProt Q03405, whole entry, looked up: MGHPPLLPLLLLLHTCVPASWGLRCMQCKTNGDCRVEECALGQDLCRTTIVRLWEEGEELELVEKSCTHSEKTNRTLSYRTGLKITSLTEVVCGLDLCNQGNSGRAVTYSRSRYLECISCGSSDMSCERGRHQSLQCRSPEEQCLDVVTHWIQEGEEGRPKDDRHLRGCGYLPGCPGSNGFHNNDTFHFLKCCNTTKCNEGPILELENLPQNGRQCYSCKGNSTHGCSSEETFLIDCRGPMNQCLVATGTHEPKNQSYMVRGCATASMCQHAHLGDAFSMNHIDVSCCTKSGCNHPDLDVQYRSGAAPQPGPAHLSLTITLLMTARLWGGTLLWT
UniProt Q9Y263: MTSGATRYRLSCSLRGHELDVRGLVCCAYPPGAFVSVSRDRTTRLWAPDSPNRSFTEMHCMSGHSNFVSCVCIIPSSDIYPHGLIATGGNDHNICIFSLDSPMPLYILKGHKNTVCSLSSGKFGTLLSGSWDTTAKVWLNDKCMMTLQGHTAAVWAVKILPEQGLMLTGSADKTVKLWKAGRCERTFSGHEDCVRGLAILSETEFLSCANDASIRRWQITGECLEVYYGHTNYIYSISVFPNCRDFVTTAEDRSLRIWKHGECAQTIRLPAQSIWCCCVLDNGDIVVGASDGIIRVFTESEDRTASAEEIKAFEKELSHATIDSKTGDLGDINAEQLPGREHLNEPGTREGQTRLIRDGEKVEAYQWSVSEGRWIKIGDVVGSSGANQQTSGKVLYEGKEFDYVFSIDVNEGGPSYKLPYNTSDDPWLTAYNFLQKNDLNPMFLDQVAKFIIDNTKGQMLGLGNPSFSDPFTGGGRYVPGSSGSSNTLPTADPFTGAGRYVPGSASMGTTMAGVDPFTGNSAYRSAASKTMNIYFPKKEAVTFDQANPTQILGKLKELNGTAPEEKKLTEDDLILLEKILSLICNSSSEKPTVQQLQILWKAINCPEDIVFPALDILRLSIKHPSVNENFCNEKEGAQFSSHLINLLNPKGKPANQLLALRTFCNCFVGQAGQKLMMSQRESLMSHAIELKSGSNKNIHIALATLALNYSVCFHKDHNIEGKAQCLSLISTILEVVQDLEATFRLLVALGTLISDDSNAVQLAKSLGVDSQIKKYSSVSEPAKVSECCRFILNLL
UniProt Q9Y2I7: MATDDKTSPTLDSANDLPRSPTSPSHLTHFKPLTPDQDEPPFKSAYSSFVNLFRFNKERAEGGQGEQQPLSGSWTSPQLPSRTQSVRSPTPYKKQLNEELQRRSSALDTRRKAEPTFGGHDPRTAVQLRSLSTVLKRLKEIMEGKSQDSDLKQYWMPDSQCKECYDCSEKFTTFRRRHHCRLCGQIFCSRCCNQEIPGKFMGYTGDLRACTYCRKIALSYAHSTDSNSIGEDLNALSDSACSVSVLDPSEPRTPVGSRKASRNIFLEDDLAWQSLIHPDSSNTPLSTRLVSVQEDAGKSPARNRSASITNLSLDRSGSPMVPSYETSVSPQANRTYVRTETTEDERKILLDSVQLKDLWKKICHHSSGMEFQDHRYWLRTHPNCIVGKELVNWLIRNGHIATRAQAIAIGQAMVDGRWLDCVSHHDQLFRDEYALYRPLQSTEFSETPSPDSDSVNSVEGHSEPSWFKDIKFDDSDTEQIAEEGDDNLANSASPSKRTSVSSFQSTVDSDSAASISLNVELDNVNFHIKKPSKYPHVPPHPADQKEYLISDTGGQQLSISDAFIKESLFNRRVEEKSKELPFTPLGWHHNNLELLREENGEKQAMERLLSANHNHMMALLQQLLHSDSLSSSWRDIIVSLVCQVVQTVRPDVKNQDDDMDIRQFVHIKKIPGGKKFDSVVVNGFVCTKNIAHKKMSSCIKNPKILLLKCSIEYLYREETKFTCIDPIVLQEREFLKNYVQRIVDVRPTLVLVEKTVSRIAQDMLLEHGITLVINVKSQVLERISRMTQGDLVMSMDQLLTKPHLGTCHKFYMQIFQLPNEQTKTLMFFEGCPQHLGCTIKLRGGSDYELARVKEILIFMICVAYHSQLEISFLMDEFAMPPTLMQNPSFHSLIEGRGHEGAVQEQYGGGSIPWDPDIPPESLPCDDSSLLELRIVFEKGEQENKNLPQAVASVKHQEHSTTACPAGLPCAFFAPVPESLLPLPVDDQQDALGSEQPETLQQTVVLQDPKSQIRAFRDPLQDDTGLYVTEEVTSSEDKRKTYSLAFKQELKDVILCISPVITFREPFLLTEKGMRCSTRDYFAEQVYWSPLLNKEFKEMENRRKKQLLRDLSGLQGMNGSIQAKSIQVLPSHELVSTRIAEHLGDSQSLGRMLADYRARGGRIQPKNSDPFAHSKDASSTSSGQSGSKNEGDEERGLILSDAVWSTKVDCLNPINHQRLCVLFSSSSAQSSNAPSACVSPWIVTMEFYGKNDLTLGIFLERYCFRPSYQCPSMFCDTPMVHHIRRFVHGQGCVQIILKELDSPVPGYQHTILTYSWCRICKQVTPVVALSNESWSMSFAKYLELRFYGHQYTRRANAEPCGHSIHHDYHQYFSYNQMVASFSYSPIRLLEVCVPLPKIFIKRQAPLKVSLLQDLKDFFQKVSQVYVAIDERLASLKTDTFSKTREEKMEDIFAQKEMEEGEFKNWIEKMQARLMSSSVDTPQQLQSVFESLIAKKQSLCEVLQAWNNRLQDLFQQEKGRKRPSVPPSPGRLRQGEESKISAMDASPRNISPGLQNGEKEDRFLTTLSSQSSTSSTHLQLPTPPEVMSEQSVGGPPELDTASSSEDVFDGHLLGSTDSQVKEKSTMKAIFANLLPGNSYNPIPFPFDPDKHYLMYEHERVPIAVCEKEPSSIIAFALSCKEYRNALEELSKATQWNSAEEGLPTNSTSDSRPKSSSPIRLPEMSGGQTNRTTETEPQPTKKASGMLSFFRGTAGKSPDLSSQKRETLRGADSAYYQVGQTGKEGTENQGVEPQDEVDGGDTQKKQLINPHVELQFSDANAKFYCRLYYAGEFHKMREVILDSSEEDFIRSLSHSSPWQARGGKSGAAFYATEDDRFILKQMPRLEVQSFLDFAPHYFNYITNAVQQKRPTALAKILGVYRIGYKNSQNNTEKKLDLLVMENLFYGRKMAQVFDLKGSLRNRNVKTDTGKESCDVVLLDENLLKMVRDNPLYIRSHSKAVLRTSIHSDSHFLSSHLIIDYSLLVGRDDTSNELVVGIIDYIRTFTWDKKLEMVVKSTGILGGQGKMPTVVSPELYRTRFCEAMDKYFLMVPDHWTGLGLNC
UniProt Q6P5Z2: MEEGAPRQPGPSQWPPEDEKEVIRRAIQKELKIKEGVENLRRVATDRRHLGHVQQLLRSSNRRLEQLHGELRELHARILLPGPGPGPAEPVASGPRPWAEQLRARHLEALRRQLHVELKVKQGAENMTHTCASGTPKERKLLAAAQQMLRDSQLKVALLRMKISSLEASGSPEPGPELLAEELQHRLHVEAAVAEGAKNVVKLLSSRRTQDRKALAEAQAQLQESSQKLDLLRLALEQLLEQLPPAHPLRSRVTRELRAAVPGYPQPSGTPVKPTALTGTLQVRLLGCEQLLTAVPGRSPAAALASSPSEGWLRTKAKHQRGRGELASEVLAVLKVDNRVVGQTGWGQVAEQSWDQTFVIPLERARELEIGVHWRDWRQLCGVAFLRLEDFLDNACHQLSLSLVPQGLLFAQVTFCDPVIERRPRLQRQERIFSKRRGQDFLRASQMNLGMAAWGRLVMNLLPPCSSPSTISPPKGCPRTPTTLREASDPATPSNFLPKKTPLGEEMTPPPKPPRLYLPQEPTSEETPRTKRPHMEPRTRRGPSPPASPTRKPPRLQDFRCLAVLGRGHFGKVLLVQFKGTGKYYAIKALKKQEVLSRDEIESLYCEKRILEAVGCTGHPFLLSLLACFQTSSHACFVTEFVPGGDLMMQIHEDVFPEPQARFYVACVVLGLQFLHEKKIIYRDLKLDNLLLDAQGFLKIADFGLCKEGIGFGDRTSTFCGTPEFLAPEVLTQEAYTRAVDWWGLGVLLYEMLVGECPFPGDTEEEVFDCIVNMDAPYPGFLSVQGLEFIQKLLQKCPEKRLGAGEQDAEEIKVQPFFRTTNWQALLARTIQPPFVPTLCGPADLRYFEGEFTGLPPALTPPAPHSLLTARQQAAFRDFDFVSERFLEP
UniProt Q9Y4D7: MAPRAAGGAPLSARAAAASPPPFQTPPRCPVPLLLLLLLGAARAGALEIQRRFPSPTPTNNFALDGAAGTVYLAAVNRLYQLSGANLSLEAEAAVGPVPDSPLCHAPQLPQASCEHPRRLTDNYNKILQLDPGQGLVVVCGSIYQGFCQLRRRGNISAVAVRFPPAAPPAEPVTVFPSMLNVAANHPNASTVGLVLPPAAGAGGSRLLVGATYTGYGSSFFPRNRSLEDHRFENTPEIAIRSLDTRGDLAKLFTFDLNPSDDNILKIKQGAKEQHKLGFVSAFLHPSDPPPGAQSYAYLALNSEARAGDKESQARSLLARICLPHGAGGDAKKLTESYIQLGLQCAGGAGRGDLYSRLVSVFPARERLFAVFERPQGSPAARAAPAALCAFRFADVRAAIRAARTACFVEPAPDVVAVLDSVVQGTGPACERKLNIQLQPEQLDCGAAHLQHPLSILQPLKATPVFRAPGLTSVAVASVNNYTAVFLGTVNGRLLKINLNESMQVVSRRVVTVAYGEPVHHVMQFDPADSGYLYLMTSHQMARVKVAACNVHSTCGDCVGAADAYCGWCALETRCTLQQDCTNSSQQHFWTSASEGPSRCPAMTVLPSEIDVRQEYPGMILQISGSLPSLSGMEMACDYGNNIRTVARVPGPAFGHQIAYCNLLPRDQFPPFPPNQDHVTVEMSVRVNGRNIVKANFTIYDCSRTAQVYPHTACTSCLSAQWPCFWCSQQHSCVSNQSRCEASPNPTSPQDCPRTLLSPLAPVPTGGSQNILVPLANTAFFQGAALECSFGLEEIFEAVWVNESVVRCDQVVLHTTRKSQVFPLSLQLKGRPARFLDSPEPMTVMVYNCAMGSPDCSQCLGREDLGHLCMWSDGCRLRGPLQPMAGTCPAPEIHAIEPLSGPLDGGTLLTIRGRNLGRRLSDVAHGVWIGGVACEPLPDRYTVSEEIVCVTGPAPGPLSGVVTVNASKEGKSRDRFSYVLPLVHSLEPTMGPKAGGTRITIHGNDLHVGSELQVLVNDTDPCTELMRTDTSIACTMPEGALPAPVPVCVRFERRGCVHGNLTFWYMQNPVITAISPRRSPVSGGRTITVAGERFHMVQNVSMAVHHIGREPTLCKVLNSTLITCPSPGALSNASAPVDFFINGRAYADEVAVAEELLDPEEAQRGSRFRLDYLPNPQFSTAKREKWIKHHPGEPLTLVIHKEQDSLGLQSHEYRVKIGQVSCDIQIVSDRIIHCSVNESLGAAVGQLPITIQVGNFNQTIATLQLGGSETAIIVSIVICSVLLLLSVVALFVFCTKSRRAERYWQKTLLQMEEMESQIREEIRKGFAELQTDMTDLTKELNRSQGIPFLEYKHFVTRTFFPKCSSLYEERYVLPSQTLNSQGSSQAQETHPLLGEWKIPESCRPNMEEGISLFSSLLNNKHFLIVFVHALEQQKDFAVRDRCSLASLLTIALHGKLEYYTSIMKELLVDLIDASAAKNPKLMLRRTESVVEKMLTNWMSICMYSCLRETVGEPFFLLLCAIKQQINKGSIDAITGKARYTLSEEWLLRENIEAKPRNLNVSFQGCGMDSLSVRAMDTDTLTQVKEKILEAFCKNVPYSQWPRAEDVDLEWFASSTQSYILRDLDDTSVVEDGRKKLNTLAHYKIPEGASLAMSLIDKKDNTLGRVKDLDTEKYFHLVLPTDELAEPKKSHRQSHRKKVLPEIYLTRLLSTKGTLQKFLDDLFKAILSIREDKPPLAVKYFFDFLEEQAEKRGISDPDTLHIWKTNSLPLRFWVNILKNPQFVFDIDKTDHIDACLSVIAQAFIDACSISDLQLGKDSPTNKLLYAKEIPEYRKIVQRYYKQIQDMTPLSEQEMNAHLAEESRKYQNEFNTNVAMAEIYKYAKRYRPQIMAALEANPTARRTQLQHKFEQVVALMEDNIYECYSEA
UniProt Q9NRX1: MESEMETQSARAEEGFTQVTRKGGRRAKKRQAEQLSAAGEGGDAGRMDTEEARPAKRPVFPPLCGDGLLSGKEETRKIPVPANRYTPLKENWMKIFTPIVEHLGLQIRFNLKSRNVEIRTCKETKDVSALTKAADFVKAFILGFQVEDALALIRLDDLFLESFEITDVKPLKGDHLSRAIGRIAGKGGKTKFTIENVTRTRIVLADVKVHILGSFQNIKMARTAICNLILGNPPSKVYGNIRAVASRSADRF
UniProt P48739: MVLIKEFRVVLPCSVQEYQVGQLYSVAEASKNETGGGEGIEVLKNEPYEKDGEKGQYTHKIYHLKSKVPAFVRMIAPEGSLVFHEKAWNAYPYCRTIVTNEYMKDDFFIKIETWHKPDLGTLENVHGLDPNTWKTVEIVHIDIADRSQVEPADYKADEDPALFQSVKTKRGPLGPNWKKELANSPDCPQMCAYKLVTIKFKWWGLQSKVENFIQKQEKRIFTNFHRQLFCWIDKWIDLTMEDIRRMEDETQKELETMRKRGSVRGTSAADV

Compound: CC1Cc2ccccc2N1C(=O)C1CCCN(C1)C(=O)CCl (mixture of isomers) [TRIM25 ligand 11 (diastereomer mixture)]
Experiment: probe-labelled cysteine peptide fold change vs DMSO (competition) (log2 fold change); higher = less target engagement (more negative = stronger competition)
Details: THP-1, incubation time: 4 h
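Further: competitive chemoproteomic profiling in live THP-1 cells with an iodoacetamide desthiobiotin (IA-DTB) probe, comparing probe-labelled peptide intensities in compound-treated cells against DMSO-treated controls.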

Row | Target | probe-labelled cysteine peptide fold change (10 µM) | probe-labelled cysteine peptide fold change (50 µM)
1 | PLAUR_Q03405_293_SGCNHPDLDVQYR (UniProt Q03405) | 0.118 | -0.0438
2 | PLAA_Q9Y263_263_HGECAQTIR (UniProt Q9Y263) | 0.0854 | 0.44
3 | PLXNB2_O15031_112_LVECGSLFK (UniProt O15031) | 0.247 | 0.163
4 | PLXNB2_O15031_489_DSQDPYCGWCVVEGR (UniProt O15031) | -0.075 | 0.029
5 | PNPLA6_Q8IY17_418_CVSMPGDISGLQGGPR (UniProt Q8IY17) | -0.113 | -0.0549
6 | PIKFYVE_Q9Y2I7_1498_QSLCEVLQAWNNR (UniProt Q9Y2I7) | -0.0183 | -0.0422
7 | PLEKHB2_Q96CS7_75+81_DCMLQIVCR (UniProt Q96CS7) | -0.373 | -0.142
8 | PLXNB2_O15031_1149_TLTETDLYCEPPEVQPPPK (UniProt O15031) | -0.00604 | 0.0509
9 | PIKFYVE_Q9Y2I7_807_MTQGDLVMSMDQLLTKPHLGTCHK (UniProt Q9Y2I7) | -0.237 | -0.0147
10 | PLEC_Q15149_1136_LQLEACETR (UniProt Q15149) | -0.0517 | 0.0738
11 | PLXNB2_O15031_555_RAQGEVQLTVSPLPALSEEDELLCLFGESPPHPAR (UniProt O15031) | 0.112 | 0.319
12 | PLOD1_Q02809_680_VGVDYEGGGCR (UniProt Q02809) | -0.0514 | 0.25
13 | PLEC_Q15149_950_GRLPLLAVCDYK (UniProt Q15149) | -0.185 | 0.0516
14 | PLAUR_Q03405_144_SPEEQCLDVVTHWIQEGEEGRPK (UniProt Q03405) | 0.161 | 0.2
15 | PIK3CA_P42336_215_INHDCVPEQVIAEAIR (UniProt P42336) | 0.117 | 0.0805
16 | PKN3_Q6P5Z2_131_QGAENMTHTCASGTPK (UniProt Q6P5Z2) | 0.116 | 0.106
17 | PLXND1_Q9Y4D7_445_KLNIQLQPEQLDCGAAHLQHPLSILQPLK (UniProt Q9Y4D7) | 0.116 | 0.192
18 | PLA2G15_Q8NCC3_371_SALQCQAWQSR (UniProt Q8NCC3) | 0.0679 | 0.0975
19 | PMPCA_Q10713_266_MVLAGVGVEHEHLVDCAR (UniProt Q10713) | 0.0959 | 0.0674
20 | PLEC_Q15149_965_QVEVTVHKGDECQLVGPAQPSHWK (UniProt Q15149) | 0.0381 | 0.052
21 | PNO1_Q9NRX1_226_TAICNLILGNPPSK (UniProt Q9NRX1) | 0.191 | 0.0727
22 | PLAA_Q9Y263_208_GLAILSETEFLSCANDASIRR (UniProt Q9Y263) | -0.0869 | -0.00897
23 | PITPNB_P48739_13_VVLPCSVQEYQVGQLYSVAEASK (UniProt P48739) | 0.0171 | 0.151
24 | PLCB3_Q01970_193_VETALESCGLK (UniProt Q01970) | 0.0848 | -0.133

Shown with tabs: entries from further up.
Row	Target	probe-labelled cysteine peptide fold change (10 µM)	probe-labelled cysteine peptide fold change (50 µM)
10	PLEC_Q15149_1136_LQLEACETR (UniProt Q15149)	-0.0517	0.0738
11	PLXNB2_O15031_555_RAQGEVQLTVSPLPALSEEDELLCLFGESPPHPAR (UniProt O15031)	0.112	0.319
